This is an account of results in paper PMC6802120, “Concatenation of 14-3-3 with partner phosphoproteins as a tool to study their interaction” (Scientific Reports, 2019).

Results are given in words; binding and its absence hold for the method and conditions named.

This assay concerns the target T1, pCH1 (phosphorylated peptidic chimera of 14-3-3σ(clu3)∆C with the HSPB6 phosphopeptide, residues 12-19) (human) (UniProt P31947).
T1 sequence (chain, phosphoserine at Ser16 of the HSPB6 peptide (phosphorylated by PKA)): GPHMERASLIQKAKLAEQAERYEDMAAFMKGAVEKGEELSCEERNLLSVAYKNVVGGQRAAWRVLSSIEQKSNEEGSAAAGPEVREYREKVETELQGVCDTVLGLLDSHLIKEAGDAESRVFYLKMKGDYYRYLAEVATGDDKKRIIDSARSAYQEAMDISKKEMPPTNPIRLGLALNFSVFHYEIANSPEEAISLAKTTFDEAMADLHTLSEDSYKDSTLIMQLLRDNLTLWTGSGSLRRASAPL
Nature of the assay: SEC; fluorescence-assisted size-exclusion spectrochromatography, Superdex 200 Increase 5/150, SEC buffer; detection at 230 nm absorbance and Trp fluorescence (excitation 298 nm, emission 360 nm); proteins alone and mixed; both purified. (In general: Size exclusion chromatography separates by hydrodynamic size, large species first.)

B1: HSPB6 ACD (α-crystallin domain, residues 72-149) (domain or fragment, human, UniProt O14558 72-149, looked up)
chain: GHFSVLLDVKHFSPEEIAVKVVGEHVEVHARHEERPDEHGFVAREFHRRYRLPPGVDPAAVTSALSPEGVLSIQAAPA
notes: human small heat shock protein HSPB6, α-crystallin domain, residues 72-149; also called ACD dimer; isolated ACD
In the case of B1, the binding entry is on record as “no binding (tested: very high micromolar concentrations)”.
